For some assays here: Part of at least one peptide drawing is inferred or uncertain, most often the ends. Some results were stated once for a whole list of compounds, not compound by compound. No end group written: not given here.
What was measured:
[1] = test system: K12 E. coli; format: cell-based; conditions: peptide 0 to ~100 μg/ml
Protocol: The antimicrobial activities of the peptides and their acetylated derivatives may be assessed using K-12 E. coli and assays based on an existing protocol used to study derivatives of hBD-3. The bacteria may be grown to mid-log phase in Luria Bertani (LB) broth. Aliquots of the culture may then be diluted (to a cell density of about 10^6 CFU/ml) into 10 mM sodium phosphate at a pH of about 7.5. Each of the aliquots may contain varied concentrations of peptide or acetylated peptide. The diluted bacterial cultures may then be incubated for about 2 hours at a temperature of about 37° C. After the proscribed time, serial dilutions of the assay cultures may be plated onto LB agar plates, and then allowed to incubate overnight at a temperature of about 37° C. After incubating, colonies may be counted. […]
The antibacterial activities of the free and acetylated peptides may be determined using K12 E. coli and a known assay protocol. […] Cell density may be monitored using optical density at 600 nm. […]
Assay cultures may be incubated at 37° C. for about two hours. […] Colonies may be counted the following morning.
Bacterial survival at each peptide concentration may be calculated according to the ratio of the number of colonies on the plates corresponding to the peptide concentration and the average number of colonies observed for assay cultures lacking peptide. […]

[2] = test system: E. coli; conditions: reportedly; as low as; cited from earlier work

| Substance | maximum bacteria killed within the range of evaluated peptide concentrations [1] | lowest concentration demonstrating antimicrobial potency [2] |
| --- | --- | --- |
| Ac-RGRK(Ac)SSRRK(Ac)K(Ac)-OH [acetylated Pep-1] | ≤ 80% | – |
| RGRKSSRRKK [Pep-1, RGRKSSRRKK (SEQ ID NO:2)] | – | 4 µg/mL |
